Assay results reported in PMC8275450.
These are yes or no findings as the source states them, for the method shown. Binding seen in cells or lysates may run through a third protein. Here binding means that the protein was enriched with, or labelled near, the bait; the list need not be complete.

By UniProt entry, the sequences of proteins in these tests, tags left out. Where a name states a change or a piece, a line headed by the entry shows the natural chain unless it says otherwise.
UniProt C0H4W3: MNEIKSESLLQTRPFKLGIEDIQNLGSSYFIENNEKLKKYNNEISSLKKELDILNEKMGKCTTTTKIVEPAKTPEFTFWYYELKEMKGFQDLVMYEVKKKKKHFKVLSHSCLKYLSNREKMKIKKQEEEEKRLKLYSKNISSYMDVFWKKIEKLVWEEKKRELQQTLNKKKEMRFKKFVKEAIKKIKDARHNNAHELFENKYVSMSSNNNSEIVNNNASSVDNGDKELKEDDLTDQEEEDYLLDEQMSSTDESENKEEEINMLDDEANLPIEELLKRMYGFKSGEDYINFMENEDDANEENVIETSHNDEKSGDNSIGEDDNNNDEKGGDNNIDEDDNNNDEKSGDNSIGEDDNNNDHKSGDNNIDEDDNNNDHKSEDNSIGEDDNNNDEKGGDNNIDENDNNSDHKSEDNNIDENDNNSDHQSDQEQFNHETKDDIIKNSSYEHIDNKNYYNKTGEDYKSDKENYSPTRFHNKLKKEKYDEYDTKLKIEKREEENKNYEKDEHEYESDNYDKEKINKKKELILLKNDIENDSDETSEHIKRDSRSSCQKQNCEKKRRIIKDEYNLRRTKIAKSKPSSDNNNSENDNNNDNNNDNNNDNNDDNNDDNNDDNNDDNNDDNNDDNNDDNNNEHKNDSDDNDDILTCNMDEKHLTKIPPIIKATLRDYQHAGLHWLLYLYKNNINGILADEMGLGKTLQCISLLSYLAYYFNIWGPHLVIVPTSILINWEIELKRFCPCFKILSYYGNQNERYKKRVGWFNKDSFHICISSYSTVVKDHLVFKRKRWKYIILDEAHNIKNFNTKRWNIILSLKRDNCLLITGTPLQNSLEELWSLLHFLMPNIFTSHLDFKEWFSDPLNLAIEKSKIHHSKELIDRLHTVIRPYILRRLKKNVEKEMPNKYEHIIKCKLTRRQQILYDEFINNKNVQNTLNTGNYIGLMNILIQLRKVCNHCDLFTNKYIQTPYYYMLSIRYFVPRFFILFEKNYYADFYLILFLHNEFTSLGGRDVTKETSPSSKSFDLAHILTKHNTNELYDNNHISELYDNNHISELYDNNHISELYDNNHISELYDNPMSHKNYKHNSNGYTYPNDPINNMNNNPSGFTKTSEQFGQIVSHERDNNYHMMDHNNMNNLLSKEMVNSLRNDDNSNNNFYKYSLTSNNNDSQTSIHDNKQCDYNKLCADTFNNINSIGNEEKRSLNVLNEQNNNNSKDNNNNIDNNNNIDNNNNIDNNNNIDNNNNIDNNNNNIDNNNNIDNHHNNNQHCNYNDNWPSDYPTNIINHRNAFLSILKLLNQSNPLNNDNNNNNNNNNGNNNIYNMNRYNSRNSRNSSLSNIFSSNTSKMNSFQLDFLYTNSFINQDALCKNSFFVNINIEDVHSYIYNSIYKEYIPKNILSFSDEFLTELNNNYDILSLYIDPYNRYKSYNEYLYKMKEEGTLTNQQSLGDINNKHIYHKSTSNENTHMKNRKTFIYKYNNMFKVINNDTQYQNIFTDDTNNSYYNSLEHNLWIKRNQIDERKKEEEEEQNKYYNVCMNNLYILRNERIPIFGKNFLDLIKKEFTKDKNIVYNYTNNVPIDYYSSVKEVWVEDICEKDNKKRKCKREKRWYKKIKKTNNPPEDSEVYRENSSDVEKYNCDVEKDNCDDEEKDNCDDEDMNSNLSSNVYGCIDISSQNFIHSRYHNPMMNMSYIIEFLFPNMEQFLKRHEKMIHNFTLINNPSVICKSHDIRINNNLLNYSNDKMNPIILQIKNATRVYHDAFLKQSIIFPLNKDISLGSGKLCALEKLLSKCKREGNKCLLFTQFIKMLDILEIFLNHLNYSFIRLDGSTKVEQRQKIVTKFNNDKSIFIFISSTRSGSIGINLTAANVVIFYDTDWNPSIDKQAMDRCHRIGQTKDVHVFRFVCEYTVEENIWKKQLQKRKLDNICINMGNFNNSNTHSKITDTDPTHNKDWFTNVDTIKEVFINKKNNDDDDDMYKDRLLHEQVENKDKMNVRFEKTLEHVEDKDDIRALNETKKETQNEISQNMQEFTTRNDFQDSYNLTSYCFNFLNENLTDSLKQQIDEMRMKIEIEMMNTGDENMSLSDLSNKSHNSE
UniProt Q8IE95: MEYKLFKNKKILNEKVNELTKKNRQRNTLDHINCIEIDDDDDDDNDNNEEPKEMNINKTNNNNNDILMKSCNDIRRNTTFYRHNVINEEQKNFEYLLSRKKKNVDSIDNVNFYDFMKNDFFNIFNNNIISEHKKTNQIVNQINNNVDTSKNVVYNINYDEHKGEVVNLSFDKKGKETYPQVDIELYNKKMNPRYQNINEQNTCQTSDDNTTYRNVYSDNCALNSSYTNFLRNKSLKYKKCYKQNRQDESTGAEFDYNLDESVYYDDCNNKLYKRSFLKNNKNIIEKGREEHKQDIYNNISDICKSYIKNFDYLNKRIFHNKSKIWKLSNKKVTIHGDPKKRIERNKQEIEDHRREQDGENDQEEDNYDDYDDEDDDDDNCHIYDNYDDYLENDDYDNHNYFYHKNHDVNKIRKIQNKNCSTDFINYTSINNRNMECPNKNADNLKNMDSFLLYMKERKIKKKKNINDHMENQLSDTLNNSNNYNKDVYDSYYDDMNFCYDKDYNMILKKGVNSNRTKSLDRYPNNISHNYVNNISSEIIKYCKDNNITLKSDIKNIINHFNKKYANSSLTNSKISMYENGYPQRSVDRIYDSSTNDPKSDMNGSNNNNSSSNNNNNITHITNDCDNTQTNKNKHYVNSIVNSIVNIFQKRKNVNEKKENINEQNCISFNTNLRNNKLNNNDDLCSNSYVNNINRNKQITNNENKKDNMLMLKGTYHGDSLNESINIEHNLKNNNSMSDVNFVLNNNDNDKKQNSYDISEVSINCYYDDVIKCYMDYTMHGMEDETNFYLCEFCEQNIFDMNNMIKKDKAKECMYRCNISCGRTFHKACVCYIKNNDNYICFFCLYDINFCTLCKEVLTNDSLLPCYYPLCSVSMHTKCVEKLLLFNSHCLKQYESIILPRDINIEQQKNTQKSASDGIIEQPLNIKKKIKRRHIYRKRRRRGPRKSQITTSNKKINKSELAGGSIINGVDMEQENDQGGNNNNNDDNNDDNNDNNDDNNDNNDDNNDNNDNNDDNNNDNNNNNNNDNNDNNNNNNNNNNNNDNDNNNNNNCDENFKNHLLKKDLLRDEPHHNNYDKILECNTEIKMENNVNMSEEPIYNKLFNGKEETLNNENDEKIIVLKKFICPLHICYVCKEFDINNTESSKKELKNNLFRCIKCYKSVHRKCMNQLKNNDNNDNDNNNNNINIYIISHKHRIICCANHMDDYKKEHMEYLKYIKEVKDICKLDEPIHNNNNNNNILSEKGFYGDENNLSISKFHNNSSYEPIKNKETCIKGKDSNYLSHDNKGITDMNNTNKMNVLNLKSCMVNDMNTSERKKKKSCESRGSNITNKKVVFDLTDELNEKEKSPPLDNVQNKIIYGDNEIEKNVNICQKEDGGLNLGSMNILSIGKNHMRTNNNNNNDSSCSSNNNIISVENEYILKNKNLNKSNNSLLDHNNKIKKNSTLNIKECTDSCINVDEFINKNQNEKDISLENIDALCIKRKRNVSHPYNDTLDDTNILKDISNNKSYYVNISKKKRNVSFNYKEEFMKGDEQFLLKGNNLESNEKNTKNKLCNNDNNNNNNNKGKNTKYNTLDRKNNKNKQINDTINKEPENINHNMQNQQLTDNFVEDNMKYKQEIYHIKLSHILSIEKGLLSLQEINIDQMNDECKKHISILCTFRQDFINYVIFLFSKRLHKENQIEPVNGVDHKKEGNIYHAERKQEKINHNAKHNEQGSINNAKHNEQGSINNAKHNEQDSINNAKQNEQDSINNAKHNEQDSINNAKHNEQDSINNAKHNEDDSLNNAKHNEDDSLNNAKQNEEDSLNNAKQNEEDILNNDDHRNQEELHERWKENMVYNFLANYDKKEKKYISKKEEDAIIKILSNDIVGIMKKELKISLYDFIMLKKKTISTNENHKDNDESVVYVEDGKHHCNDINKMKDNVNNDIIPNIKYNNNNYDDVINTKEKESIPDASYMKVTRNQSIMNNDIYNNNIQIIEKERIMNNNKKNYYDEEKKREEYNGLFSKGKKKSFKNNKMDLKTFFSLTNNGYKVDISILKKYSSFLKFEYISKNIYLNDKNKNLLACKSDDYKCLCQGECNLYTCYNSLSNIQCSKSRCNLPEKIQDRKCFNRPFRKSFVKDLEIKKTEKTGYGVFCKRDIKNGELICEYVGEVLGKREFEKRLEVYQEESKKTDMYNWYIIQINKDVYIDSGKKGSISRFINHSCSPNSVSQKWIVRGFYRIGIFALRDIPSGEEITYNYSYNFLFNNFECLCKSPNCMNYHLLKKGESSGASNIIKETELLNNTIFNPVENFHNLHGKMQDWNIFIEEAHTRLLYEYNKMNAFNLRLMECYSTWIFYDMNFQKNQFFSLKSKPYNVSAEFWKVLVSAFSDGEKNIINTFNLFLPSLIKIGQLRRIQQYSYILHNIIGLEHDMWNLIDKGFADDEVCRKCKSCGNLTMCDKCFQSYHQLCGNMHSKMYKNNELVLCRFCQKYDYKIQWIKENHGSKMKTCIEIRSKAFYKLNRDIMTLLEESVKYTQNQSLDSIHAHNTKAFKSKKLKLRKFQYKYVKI

Target: PfAP2-O-GFP-HA-DD24 (Plasmodium falciparum (NF54)) (UniProt Q8IHT5)
Assay: affinity purification with mass spectrometry; PfAP2-O-GFP-HA-DD24 immunoprecipitated via the HA tag (HA-Tag C29F4 rabbit mAb Sepharose beads) from a total protein extract of schizonts; eluate on 12% SDS gel, silver stained; three bands (70, 30, 15 kDa) absent from NF54 wild-type control excised, trypsin-digested, LTQ-Orbitrap Velos

Question: With “Pf08_0048, putative Snf2-related CBP activator (chromatin remodeler) (from UniProt C0H4W3 1-2082)” as the molecule, how does the binding read?
Answer: binds

Question: Which binding does the source give for “histone-lysine N-methyltransferase SET1 (encoded by PF3D7_0629700) (from UniProt C6KTD2 1-6753) (enzyme)” here?
Answer: binds

Question: “ApiAP2 family member PF3D7_0420300/PFD0985W (from UniProt Q8I1N6 1-3473)” was tested. Which binding did it give?
Answer: binds

Question: With “histone-lysine N-methyltransferase SET2 (encoded by PF3D7_1322100, PfSET2/PfSET-VS) (from UniProt Q8IE95) (enzyme)” as the molecule, how does the binding read?
Answer: binds

B1: 167 kDa protein PF3D7_0216700/PFB0765w, predicted to be related to autophagy (protein, UniProt Q8I659 1-1383)
chain: MVILGDEKESYTSYCDKNNDILISKQKIEDLKKSIENLLNDKNAHYELNHIKRSLNELDIYTKNKSDLFNNYNLNESLNDSYKDKTFEELKSQLIKQKNLNSCLSLKLKSIHIKLNNLFLKKNEFEKTINNKIKEIELQFLIIQNVTHENKGIPISKELKEQEKHLQNSHENVAIYDTHEIENNDKKKLYTNFHNEEKDHLKCLLEEYSKTLEIYKMGKIQLEFELKCCKEKLNEEIEKNNNYNNKMKSYEIHIDVVKNENCKNLEELNDLKLQLEKTKSENNQNYVKNKILNDEKNNLDKINNDLKIKIKNFKTLLNDAQNKEYILNNFTQKIFNIITYLKNNDEHNFLNDKIHNKLDINQDQIYVQTELYIDIISSSIRNLINFKKTLEERNVELEKVTHEMKELRKELILKKKNYEELRLKLNHLECVERDSVKINSEKEKGEKVIYELKEKLDNDEKIINDLKKKNSYQVYKMKDYEKRENNLINEINKLKLFIEENKMTVERGNEMNNKKLEEMKQKNKELINNLNDISDELKNCIEQVNSVSRNMANVEKEKENIINELQILRMKNDTMRKRISKFVEQEKVLKFKLYTLNNDIFSKNEKLNDMQKKLNDVNEKYKNIVECLNNYKTEHKEQIEKKIERINTLKQNYYYLKKEYDLKNKELEKNIEHGKKLEHELSHCYEENQKLNEEIKRRNSFIKNKDRKIDLLTNIENELLKKKEINNIKLMEKQNVIKNNEQLLKDIKDENEKMNEHVNKLQNELIKRELQNKCISKDIEFCKKEKEDKIKNLEDDLLEKKKCIENLKDELINIKKKMEDKMHMTNEMDLLSNKVEELNRINKTYEKNIVELNNELDVIKKKLNDEEFLKEEEKKKNIDMVYKIKEYEIQIKEKENEIDSLKKNEQNLHVLKNEELNEKEIILKNKYDKEINMIIEQYNKKIQEEKDMLNNKIKSMDQTHKNQIEEMQEENKKELKRLKNVCDMNLQSQILIKENEKHMQEKVEEYKNLLKQKDQELKNIIQEYDERIEIQNKEMEDIVNDCEEKLKQAKINNKKLTTATNMANNNNMLMDENLKEKDKKINDLMKDMEKKKEEINKLVEEKSKLEHSHVKIQNEMSLLVEQNEKLKEEMGLSRIAIKDMEEIKKDMEKYEEEKKKNEEERKKNEEERKKNEEERKKNEEEKKKNEEERKKNEEEKKKLEKDKHQFEEEKERMEIYEHQKEDRKRKDKKKKGHSSDKEEKYNKKEKTKEKSSNILFDEEYIIQLEELRDTGENCFIYLKSLSKELDVIINKLKSKDDALLNDAFNKINLAITSWNIFNEENKEGDNITTVENTATEGNITIDENTTEVEMNNEEVYKIFSVEKYDMLKKEVGEKVECIQKLIG
Question: For B1, which binding is on record?
Answer: binds
